Measurements reported in PubChem BioAssay AID504786 (Drosophila RNAi Screening Center, 2011).
In all, the deposit lists about 21,000 reagents; this is a random part of those with a known target gene and a result. 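Primary screen; positive scores mean lost reporter signal, so the sign may be inverted from the usual convention.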 Names joined by + are all predicted targets of the reagent. Not all columns of the deposit are shown.

- Screen: 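Fly genes required for HIF-dependent transcription when hypoxia is mimicked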 (primary screen)
- System: Drosophila S2 cells with a stable HIF luciferase reporter
- Knock-down reagent: long dsRNA against Drosophila genes, about 0.2 µg dsRNA per well of a 384-well plate
- Time to read-out: three days of knock-down, then 20 h of DFO before reading
- Conditions: desferrioxamine (DFO) at 100 µM, an iron chelator that mimics hypoxia, for 20 h
- Measurement: 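HIF reporter luminescence in cells given 100 µM DFO for 20 h, using the mouse ldh-a hypoxia-response element, scored as per-plate z-scores; higher means greater loss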
- Scale: z-score: higher = stronger loss of HIF reporter signal

z-score, replicate 1, by target and reagent
SP1173 (GeneID 38744): DRSC11277 -0.3
Ilp4 (GeneID 39152): DRSC10701 -0.3
Fatp3 (GeneID 37887): DRSC04366 -0.1
cpb (GeneID 33346): DRSC00809 0.2
DCP1 (GeneID 37790): DRSC04091 -0.3
Obp69a (GeneID 39411): DRSC11247 -0.1
Trs23 (GeneID 34197): DRSC03190 -0.5
Jabba (GeneID 37164): DRSC06521 0
CG13717 (retired record) (GeneID 38566): DRSC08116 -0.7; DRSC08324 -0.5; DRSC08326 1.1
CG31036 (GeneID 43539): DRSC15055 -0.3; DRSC15057 0
CG30050 (GeneID 246417): DRSC05342 -0.2
CG34124 (GeneID 4379887): DRSC00849 -0.4
CG12128 + CG1407: DRSC06446 -0.4

As entered above.
For “z-score, replicate 1”, Fatp3 (GeneID 37887) [DRSC04366] shows -0.1
Result for Jabba (GeneID 37164) [DRSC06521] under “z-score, replicate 1”: 0
For “z-score, replicate 1”, CG31036 (GeneID 43539) [DRSC15057] reads 0

Next reagents follow.
z-score, replicate 1, by target and reagent
CG5986 (GeneID 192506): DRSC15931 -0.2
fon (GeneID 35211): DRSC02507 -0.4
CG10029 (GeneID 40883): DRSC12498 -0.1
mop (GeneID 39610): DRSC11065 0
CG13295 (GeneID 38692): DRSC09969 -0.2
CG9284 (retired record) (GeneID 50130): DRSC03899 -0.3; DRSC04536 -0.2
CG32801 (GeneID 31152): DRSC17964 -0.3
Iml1 (GeneID 38176): DRSC08249 -0.2
MsrA (GeneID 39675): DRSC11159 -0.4
side-III (GeneID 4379844): DRSC12155 -0.4; DRSC12263 3.1; DRSC12264 -0.2
CG13908 (retired record) (GeneID 38110): DRSC08378 0.5
GstD2 (GeneID 48335): DRSC16684 -0.1
Ccp84Ag (GeneID 40819): DRSC12592 -0.4
CG8562 (GeneID 38828): DRSC10995 -0.1
Prp38 (GeneID 35934): DRSC07060 0.9
